Patent publication US20140120095A1
Like-named read-outs stand apart in the source and are kept apart here. Results are given in words; binding and its absence hold for the method and conditions named. Some results given as binding are weak or reduced against the parent protein; the word gives no strength.

The chains behind the UniProt entries cited, without tags or fusion partners. Where a name states a change or a piece, a line headed by the entry shows the natural chain unless it says otherwise. Residues count along the entry.
UniProt Q9JI71, residues 27-686: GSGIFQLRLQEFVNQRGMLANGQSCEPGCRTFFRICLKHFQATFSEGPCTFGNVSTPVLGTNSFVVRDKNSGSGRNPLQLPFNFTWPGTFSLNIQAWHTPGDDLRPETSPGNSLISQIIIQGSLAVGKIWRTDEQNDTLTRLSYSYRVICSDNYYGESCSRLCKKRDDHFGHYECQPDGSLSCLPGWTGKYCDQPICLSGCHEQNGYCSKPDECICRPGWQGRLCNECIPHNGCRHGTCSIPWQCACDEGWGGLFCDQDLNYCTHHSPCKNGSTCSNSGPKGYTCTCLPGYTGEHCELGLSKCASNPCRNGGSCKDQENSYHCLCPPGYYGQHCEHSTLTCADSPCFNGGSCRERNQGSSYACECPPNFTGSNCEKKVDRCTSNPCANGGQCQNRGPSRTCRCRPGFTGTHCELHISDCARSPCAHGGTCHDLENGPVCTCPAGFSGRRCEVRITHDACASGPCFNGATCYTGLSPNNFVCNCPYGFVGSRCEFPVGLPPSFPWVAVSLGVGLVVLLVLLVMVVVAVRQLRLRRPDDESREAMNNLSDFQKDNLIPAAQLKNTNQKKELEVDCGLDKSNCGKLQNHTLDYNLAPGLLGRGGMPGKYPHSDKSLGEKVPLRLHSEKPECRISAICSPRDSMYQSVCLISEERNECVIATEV
UniProt P46531, residues 19-526: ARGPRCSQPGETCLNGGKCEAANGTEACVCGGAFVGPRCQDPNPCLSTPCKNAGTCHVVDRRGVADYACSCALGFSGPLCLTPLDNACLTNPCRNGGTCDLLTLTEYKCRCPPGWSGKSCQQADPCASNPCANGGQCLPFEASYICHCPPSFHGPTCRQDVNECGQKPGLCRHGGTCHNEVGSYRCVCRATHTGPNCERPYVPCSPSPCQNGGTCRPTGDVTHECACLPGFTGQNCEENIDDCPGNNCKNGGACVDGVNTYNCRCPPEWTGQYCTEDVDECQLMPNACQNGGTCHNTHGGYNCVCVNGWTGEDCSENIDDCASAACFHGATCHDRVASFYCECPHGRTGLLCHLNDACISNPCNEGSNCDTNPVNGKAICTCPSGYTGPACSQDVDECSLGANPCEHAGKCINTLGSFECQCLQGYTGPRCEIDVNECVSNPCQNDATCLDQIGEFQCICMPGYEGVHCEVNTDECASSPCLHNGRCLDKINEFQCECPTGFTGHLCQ

Columns and labels:
PIGF [1] = target: T1, PIGF (UniProt P49763); assay: binding ELISA on coated PIGF (Example 12.8), receptor positive control, OD 450 nm
T1 sequence (looked up): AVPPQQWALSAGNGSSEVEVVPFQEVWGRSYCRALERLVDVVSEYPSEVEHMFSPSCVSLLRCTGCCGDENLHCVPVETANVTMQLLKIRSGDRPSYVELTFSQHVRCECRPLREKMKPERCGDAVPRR

VEGFB [2] = target: T2, VEGFB (UniProt P49765); assay: binding ELISA on coated VEGFB (Example 12.8), receptor positive control, OD 450 nm
T2 sequence (looked up): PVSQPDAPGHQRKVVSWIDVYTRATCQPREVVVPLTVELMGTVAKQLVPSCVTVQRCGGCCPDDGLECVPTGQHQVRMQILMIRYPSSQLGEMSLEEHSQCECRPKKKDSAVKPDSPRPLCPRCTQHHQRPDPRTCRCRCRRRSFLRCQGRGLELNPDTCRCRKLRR

VEGFB [3] = target: T2, VEGFB; assay: as above; remark: listed apart in the source
PIGF [4] = target: T1, PIGF; assay: solid phase binding ELISA on coated PIGF (Example 12.8), receptor as positive control
[5] = target: mouse DLL4 expressed on CHO cells (mouse) (UniProt Q9JI71); assay: FMAT competition on CHO-mDLL4 cells; unlabelled rhNotch1-Fc competes with Alexa-647 labelled hNotch1-Fc

Substance	binding (PIGF [1])	binding (VEGFB [2])	binding (VEGFB [3])	binding (PIGF [4])	binding [5]
human VEGFR1-Fc chimera (from UniProt P17948 27-687) (Fc fusion)	binds	binds	binds	binds	
human Notch1/Fc chimera (R&D Systems) (from UniProt P46531 19-526) (Fc fusion)					binds
